Reference: PubChem BioAssay AID504784 (Drosophila RNAi Screening Center, 2011)
Aim: 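Fly genes whose silencing alters how much lipid cells keep in droplets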 (primary screen). Cells: Drosophila Kc167 embryonic cells. Knock-down reagent: long dsRNA against Drosophila genes, about 250 ng dsRNA per well. Duration: 4 days. Conditions: cells fed 400 µM oleic acid bound to BSA. Detection: 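Cells imaged and segmented; ratio of lipid droplet area to nuclear area, log-transformed, then normalised as a B-score over the screen; higher means more stored lipid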. Direction: droplet/nuclear area B-score: higher = more stored lipid (overstorage).
In all, the deposit lists about 17,000 reagents; shown is an unselected part of those that have a named target and a result. 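Each column is one replicate's B-score; the combined score over replicates was not deposited, so single values may mislead.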 A plus sign joins genes that one reagent is predicted to hit. Further read-outs or replicates are left out here.

The first 3 records, ahead of the listing:
Ipo9 [DRSC16813] → droplet/nuclear area B-score, replicate 1: -1
CG10737 [DRSC05999] → droplet/nuclear area B-score, replicate 1: 0.855
CG11112 [DRSC06038] → droplet/nuclear area B-score, replicate 1: 1.97

Main list, repeating the preview:
Ipo9 [DRSC16813] → droplet/nuclear area B-score, replicate 1: -1
CG10737 [DRSC05999] → droplet/nuclear area B-score, replicate 1: 0.855
CG11112 [DRSC06038] → droplet/nuclear area B-score, replicate 1: 1.97
CG33125 [DRSC00145] → droplet/nuclear area B-score, replicate 1: -0.174
Ctl1 [DRSC08303] → droplet/nuclear area B-score, replicate 1: 1.07
Ent2 [DRSC02124] → droplet/nuclear area B-score, replicate 1: -1.35
MAPk-Ak2 [DRSC18678] → droplet/nuclear area B-score, replicate 1: 0.279
corto [DRSC12375] → droplet/nuclear area B-score, replicate 1: 0.0483
corto [DRSC22279] → droplet/nuclear area B-score, replicate 1: 0.85
corto [DRSC22988] → droplet/nuclear area B-score, replicate 1: -0.295
CG13001 [DRSC19520] → droplet/nuclear area B-score, replicate 1: -0.107
CG13001 [DRSC22443] → droplet/nuclear area B-score, replicate 1: -0.394
TH1 [DRSC20289] → droplet/nuclear area B-score, replicate 1: -0.00895
Taf10b + Taf10 [DRSC00793] → droplet/nuclear area B-score, replicate 1: -1.65
CG33500 [DRSC09115] → droplet/nuclear area B-score, replicate 1: -2.09
CG6231 [DRSC15997] → droplet/nuclear area B-score, replicate 1: -0.0915
CG15631 [DRSC00466] → droplet/nuclear area B-score, replicate 1: -3.47
CG2921 [DRSC04324] → droplet/nuclear area B-score, replicate 1: -1.4
gb [DRSC15961] → droplet/nuclear area B-score, replicate 1: -0.756
sn [DRSC18834] → droplet/nuclear area B-score, replicate 1: -0.127
YME1L [DRSC04378] → droplet/nuclear area B-score, replicate 1: 1.47
CG13630 [DRSC14631] → droplet/nuclear area B-score, replicate 1: -2.85
CG1785 [DRSC18139] → droplet/nuclear area B-score, replicate 1: 1.28
asRNA:Eig63F-2 + Eip63F-1 [DRSC21446] → droplet/nuclear area B-score, replicate 1: -0.788
Exd2 [DRSC16105] → droplet/nuclear area B-score, replicate 1: -0.0322
GstO3 [DRSC10710] → droplet/nuclear area B-score, replicate 1: -0.506
CG13050 [DRSC09931] → droplet/nuclear area B-score, replicate 1: 0.794
ppk13 [DRSC02382] → droplet/nuclear area B-score, replicate 1: -0.673
CG3651 [DRSC03730] → droplet/nuclear area B-score, replicate 1: -1.19
ppk29 [DRSC04205] → droplet/nuclear area B-score, replicate 1: -0.454
hppy [DRSC07014] → droplet/nuclear area B-score, replicate 1: -0.847
hppy [DRSC07015] → droplet/nuclear area B-score, replicate 1: 0.169
hppy [DRSC07016] → droplet/nuclear area B-score, replicate 1: 0.408
tim [DRSC00841] → droplet/nuclear area B-score, replicate 1: -0.0353
CG13999 [DRSC02331] → droplet/nuclear area B-score, replicate 1: -0.434
CG11655 [DRSC19413] → droplet/nuclear area B-score, replicate 1: 3.62
CG32264 [DRSC08061] → droplet/nuclear area B-score, replicate 1: -0.7
CG32264 [DRSC08167] → droplet/nuclear area B-score, replicate 1: 0.489
CG32264 [DRSC08169] → droplet/nuclear area B-score, replicate 1: -0.11
CG32264 [DRSC08285] → droplet/nuclear area B-score, replicate 1: 1.11
CG32264 [DRSC08437] → droplet/nuclear area B-score, replicate 1: 0.109
